## Binding screen against folded nucleic acids

Targets (5′ to 3′):
SAM-II: SAM-II riboswitch RNA pseudoknot, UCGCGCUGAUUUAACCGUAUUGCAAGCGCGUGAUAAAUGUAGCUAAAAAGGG. About 21,000 compounds screened, about 200 hits.
PreQ1: PreQ1 riboswitch RNA pseudoknot, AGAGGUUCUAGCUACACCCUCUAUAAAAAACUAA. From B. subtilis. About 24,000 compounds screened, about 170 hits.
TPP: TPP riboswitch RNA three-way junction, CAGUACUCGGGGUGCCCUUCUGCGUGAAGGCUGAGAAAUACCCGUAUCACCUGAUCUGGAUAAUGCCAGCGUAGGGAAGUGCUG. About 24,000 compounds screened, about 160 hits.

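Each compound is printed as two spots on a slide made to bind it covalently, so it has no test concentration; the read-out is fluorescence of the bound, labelled oligonucleotide. The data file lists only calls. An earlier report of the laboratory on the PreQ1, TPP and SAM-II riboswitches (doi:10.1038/s41467-019-09493-3) used 1 µM RNA for 2 h and required a mean Z-score above 3 (spot signal-to-noise against the whole library), a score well above that on a control array, and duplicate spots agreeing (coefficient of variation under 100); it then also set aside compounds that hit other targets, which this list keeps. The cut-offs behind this list may differ. The calls come from the array alone, and fixing a compound to the slide can hide its binding.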 A compound is marked yes if it was called a hit and no if it was screened but was not. This is an unselected part of the compounds tested. A target missing from an entry has no call listed here. A dash means that no call is listed here.

structure	SAM-II	PreQ1	TPP
N#Cc1nc(COc2ccc(F)cc2)oc1NCCN1CCOCC1	no	no	no
COC(=O)C1=CO[C@@H](O)[C@@H]2C(CO)=CC[C@@H]12	no	no	no
CC1CN(c2nc(Nc3ccccc3)c3cnn(C)c3n2)CC(C)O1 (stereo not drawn)	-	no	no
CCOC(=O)c1cnc2c(C#N)cccc2c1Nc1cccc(C(F)(F)F)c1	no	no	no
CCc1nn2c(NCc3cccnc3)cc(C)nc2c1-c1ccc(Cl)cc1	-	no	no
Cc1ccc(NC(=O)CC2Nc3ccccc3NC2=O)cc1[N+](=O)[O-] (stereo not drawn)	no	no	no
CCOC(=O)c1ccc(C#Cc2ccc3c(c2)C(C)(C)CCS3)nc1	no	no	no
CC(C)(CO)NC(=O)c1ccc2c(c1)C(=O)c1ccccc1-2	no	no	no
CC1=C(C(=O)OC(C)(C)C)C2(C(=O)Nc3ccc(Br)cc32)C(C#N)=C(N)O1 (stereo not drawn)	no	no	no
COc1cc(CC(O)CO)cc2c1OCO2 (stereo not drawn)	no	no	no
NC(CC(=O)N1CCC2(CCC(=O)N(CCO)C2)CC1)c1ccccc1 (stereo not drawn)	no	no	no
CC(C)S(=O)(=O)N1CCC2(CC1)[C@H](O)C[C@@H]2OCCN	no	no	no
COC(=O)[C@@H]1CC2=CC(=O)CC[C@]2(C)[C@@]23OC2C[C@@]2(C)[C@@H](CC[C@@]24CCC(=O)O4)C13 (stereo partly drawn)	no	no	no
COc1ccc(-c2noc(-c3ccccc3N)n2)cc1	no	no	no
CCOC(=O)[C@H](CCc1ccccc1)N[C@H]1CS[C@H](c2cccs2)CN(CC(=O)O)C1=O.Cl	no	no	no
Cc1nc(-n2cnnc2)ccc1-c1cncc(N)c1	no	no	no
CNC(=O)[C@@H]1C[C@@H](N)CN1Cc1c(F)ccc(C)c1Cl	no	no	no
Cc1ccc(OCC(O)Cn2c(Cc3ccccc3)nc3ccccc32)cc1 (stereo not drawn)	no	no	no
CCOC(=O)N1CCN(c2nc(-c3ccccn3)nc3c2CCNC3)CC1	no	no	no
COC(=O)c1c(-c2ccc(Br)cc2)csc1N	no	no	no
Cc1ccc(Cc2ccccc2C(=O)N2C[C@H](C3CC3)[C@@H](N)C2)cc1F	no	no	no
COc1cc(CNCC(C)C)ccc1OCc1ccc2c(c1)n(C)c(=O)n2C	-	no	no
C[C@]12CC[C@@H]3c4ccc(O)cc4CC[C@H]3[C@H]1[C@@H](O)[C@@H](O)[C@H]2O	no	no	no
CCOC(=O)c1sc(Nc2ccc(C)cc2C)nc1C	no	no	no
Cc1nc(-c2cc3ccccc3nc2NCc2ccc(Cl)cc2)no1	-	no	no
Cc1cc(-c2nc3ncccc3o2)ccc1N	no	no	no
CCN(CC)CC(O)COc1ccccc1[N+](=O)[O-].Cl (stereo not drawn)	no	no	no
c1ccc2c(c1)Nc1cc3ccccc3cc1S2	no	no	no
O=C(CS(=O)Cc1ccco1)NCC=CCOc1cc(CN2CCCCC2)ccn1 (stereo not drawn)	no	no	no
CN(Cc1ccco1)c1nc(-c2ccncc2)nc2c1CCNCC2	no	no	no
CN1CCN(c2cc(C(=O)Nc3ccc4c(c3)-c3c(c(C(N)=O)nn3-c3ccc(F)cc3)CC4)c(Cl)cn2)CC1	no	no	no
CCOc1ccc(CC(=O)C2=C(NC(C)C(=O)O)CCCC2=O)cc1OCC (stereo not drawn)	no	no	no
Nc1nc(CCC(=O)NCc2cc(N3CCOCC3)ncn2)cs1	no	no	no
CC1=C(c2ccc(C(C)C)cc2)S(=O)(=O)N=C1Nc1cccc(Cl)c1	-	no	no
COc1ccc(C2C(C#N)=C(N)Oc3[nH]nc(C)c32)cc1OC (stereo not drawn)	no	no	no
O=C1NC(=O)N2CCSC2(Cc2ccccc2)N1 (stereo not drawn)	no	no	no
Cc1cc(C)n(CCO)c(=O)n1	no	no	no
CC(C)C1C=CCN1C(=O)CSc1nnc(N)s1 (stereo not drawn)	no	no	no
CNC(=O)[C@@H]1C[C@@H](N)CN1C(=O)c1cc(C)c(C)s1	no	no	no
COc1cccc(-c2ncc(CN3CCOC4(CNCCOC4)C3)s2)c1 (stereo not drawn)	no	no	no
O=c1ccc(=O)n(CCNC2CCN(Cc3ccccc3)CC2)[nH]1	no	no	no
O=C(O)C(c1ccc(NC(=O)N2CCCC2)cc1)N1CCC(O)CC1 (stereo not drawn)	no	no	no
CCC(O)c1nc2ccccc2n1CCCCOc1ccccc1OC (stereo not drawn)	-	no	no
CN(C)c1ccc(CNc2ccc3c(c2)ncn3C(C)(C)C)cc1	no	no	no
N#Cc1cnn2c(NC3CCCCCC3)c(-c3ccc(Br)cc3)[nH]c12	-	no	no
O=C(CO)N1CCC(C(=O)O)(n2cnc3ccccc32)CC1	no	no	no
FC(F)(F)c1cccc(-c2ccc(CNCc3cccnc3)o2)c1	no	no	no
Cc1cc(NC(=O)c2cccc(CN3[C@@H]4CC[C@H]3C[C@@H](O)C4)c2)n(C)n1	no	no	no
C#CCNC1CCCCC1C(C)=O (stereo not drawn)	no	no	no
Cl.Cl.O=C(CCN1CCN(CCO)CC1)N1c2ccccc2Sc2ccc(C(F)(F)F)cc21	no	no	no
O=C(CC1COCCN1)NCCCn1nnc2ccccc21 (stereo not drawn)	no	no	no
C[C@]1(c2nc3c(C(N)=O)cccc3[nH]2)CCCN1	no	no	no
Cc1cc(NC(=O)CNCCc2nc(-c3cccnc3)n[nH]2)ccc1Cl	no	no	no
CCOC(=O)N1CCN(CC(O)COc2cc(C)ccc2C(C)C)CC1 (stereo not drawn)	no	no	no
Cc1nnc2c3ccccc3nc(Nc3ccc(N4CCOCC4)cc3)n12	-	no	no
Cc1ccc(Nc2c(S(=O)(=O)c3ccc(C)cc3)cnc3ccccc23)cc1	-	no	no
Nc1nn2c(-c3ccncc3)nnc2s1	no	no	no
COc1ccc(F)cc1NC(=O)NCC(O)CO (stereo not drawn)	no	no	no
CCc1cc(CNCc2cc(O)c3cc(C)ccc3n2)on1	no	no	no
Cc1nc(CCN)cc(N(C)Cc2nccn2C)n1	no	no	no
O=C1C(Nc2ccc(F)cc2)=C2CCCC=C2N1c1ccc(F)cc1	no	no	no
Cc1ccccc1CN(CCO)C(=O)c1cc(C(F)(F)F)n[nH]1	no	no	no
Cc1nc2ccccc2n(CC(=O)N2CC[C@H]3CNC[C@H]32)c1=O	no	no	no

5 of the entries, repeated:

* Nc1nc(CCC(=O)NCc2cc(N3CCOCC3)ncn2)cs1 | SAM-II: no; PreQ1: no; TPP: no
* Cc1nc(CCN)cc(N(C)Cc2nccn2C)n1 | SAM-II: no; PreQ1: no; TPP: no
* CN1CCN(c2cc(C(=O)Nc3ccc4c(c3)-c3c(c(C(N)=O)nn3-c3ccc(F)cc3)CC4)c(Cl)cn2)CC1 | SAM-II: no; PreQ1: no; TPP: no
* FC(F)(F)c1cccc(-c2ccc(CNCc3cccnc3)o2)c1 | SAM-II: no; PreQ1: no; TPP: no
* CN(C)c1ccc(CNc2ccc3c(c2)ncn3C(C)(C)C)cc1 | SAM-II: no; PreQ1: no; TPP: no

Calls as published in the ROBIN set (doi:10.1002/anie.202211358).